Measurements as given in article PMC10503009.
Results are given in words; binding and its absence hold for the method and conditions named. Binding seen in cells or lysates may run through a third protein. Some entries that bind do so weakly or less than the wild type.

Amino acid sequences for entries named in this document (tags omitted).
UniProt Q9UJA3: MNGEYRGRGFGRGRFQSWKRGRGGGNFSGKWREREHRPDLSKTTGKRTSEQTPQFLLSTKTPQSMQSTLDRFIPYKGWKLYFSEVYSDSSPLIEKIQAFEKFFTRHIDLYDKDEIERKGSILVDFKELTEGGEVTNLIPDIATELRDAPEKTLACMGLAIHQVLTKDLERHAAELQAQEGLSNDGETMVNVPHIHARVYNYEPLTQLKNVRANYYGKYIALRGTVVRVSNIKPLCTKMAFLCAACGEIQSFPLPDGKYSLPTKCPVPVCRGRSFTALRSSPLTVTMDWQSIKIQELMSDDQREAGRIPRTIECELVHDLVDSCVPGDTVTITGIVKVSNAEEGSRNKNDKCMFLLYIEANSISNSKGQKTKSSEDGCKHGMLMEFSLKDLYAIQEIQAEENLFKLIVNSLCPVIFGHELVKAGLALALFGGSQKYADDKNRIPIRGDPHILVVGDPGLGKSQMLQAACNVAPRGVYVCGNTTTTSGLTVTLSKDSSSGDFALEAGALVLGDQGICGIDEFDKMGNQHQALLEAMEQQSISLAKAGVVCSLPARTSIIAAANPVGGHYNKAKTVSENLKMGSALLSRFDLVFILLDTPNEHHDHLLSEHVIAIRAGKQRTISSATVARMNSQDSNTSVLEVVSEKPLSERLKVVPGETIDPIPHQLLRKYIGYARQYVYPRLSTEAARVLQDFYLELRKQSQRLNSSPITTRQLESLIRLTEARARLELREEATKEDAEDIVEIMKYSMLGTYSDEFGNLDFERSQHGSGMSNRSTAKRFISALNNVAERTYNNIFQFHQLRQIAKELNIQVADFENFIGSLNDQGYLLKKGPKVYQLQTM
UniProt P46934: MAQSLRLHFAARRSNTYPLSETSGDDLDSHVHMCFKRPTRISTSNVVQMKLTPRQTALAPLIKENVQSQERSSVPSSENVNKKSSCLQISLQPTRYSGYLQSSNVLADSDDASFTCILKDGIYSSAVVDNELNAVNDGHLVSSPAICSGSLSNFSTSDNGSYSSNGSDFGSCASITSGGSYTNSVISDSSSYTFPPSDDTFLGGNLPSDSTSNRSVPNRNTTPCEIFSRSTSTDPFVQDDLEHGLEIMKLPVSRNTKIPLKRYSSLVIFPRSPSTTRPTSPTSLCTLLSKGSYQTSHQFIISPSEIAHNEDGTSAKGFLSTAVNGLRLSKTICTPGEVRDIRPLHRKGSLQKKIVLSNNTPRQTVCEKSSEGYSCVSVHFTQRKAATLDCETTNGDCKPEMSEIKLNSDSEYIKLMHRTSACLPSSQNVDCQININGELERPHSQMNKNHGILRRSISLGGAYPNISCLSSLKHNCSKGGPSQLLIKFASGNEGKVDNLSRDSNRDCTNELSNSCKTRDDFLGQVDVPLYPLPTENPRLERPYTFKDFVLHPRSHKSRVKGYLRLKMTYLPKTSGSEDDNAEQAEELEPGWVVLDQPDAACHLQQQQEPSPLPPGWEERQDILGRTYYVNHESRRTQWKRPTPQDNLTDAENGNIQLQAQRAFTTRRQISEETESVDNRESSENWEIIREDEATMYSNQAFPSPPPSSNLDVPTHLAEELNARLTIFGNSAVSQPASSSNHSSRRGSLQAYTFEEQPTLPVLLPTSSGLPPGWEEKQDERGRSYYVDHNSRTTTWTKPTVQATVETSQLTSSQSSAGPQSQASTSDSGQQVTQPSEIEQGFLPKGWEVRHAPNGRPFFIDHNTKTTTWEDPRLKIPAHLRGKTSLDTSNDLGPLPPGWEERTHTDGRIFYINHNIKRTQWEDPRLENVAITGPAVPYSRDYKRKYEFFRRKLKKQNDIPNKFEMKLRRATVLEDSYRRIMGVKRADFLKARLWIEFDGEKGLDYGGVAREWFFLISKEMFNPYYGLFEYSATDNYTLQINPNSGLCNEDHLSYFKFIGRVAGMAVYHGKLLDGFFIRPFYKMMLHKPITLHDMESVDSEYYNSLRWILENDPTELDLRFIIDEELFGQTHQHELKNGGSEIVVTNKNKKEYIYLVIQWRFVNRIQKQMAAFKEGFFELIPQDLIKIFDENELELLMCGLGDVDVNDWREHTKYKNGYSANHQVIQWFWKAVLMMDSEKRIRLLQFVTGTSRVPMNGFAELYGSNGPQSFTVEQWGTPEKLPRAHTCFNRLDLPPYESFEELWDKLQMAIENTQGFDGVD

Biological target: MCM8 (human (endogenous in human colorectal cancer cell lines)) (UniProt Q9UJA3)
Experiment: co-IP; cell lysates immunoprecipitated with anti-MCM8 antibody, normal mouse IgG as control; western blot with anti-MCM8 and anti-NEDD4 antibodies

NEDD4 (from UniProt P46934 1-1319) was tested, and the binding was “binds”.
